# Assay results reported in the supplement of paper PMC10849652.
# Amino acid sequences for entries named in this document (tags omitted). A change or cut given only in a name is not applied to a line headed by its entry.
# UniProt Q96P16: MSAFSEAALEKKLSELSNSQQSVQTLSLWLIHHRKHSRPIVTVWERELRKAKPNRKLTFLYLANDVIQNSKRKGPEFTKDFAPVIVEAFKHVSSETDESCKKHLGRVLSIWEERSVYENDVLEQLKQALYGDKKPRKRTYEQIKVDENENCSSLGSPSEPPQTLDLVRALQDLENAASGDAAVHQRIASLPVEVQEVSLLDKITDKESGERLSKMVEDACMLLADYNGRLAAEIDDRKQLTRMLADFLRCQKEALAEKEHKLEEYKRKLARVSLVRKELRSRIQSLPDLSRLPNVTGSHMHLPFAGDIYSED
# UniProt Q9GZN7, whole entry, looked up: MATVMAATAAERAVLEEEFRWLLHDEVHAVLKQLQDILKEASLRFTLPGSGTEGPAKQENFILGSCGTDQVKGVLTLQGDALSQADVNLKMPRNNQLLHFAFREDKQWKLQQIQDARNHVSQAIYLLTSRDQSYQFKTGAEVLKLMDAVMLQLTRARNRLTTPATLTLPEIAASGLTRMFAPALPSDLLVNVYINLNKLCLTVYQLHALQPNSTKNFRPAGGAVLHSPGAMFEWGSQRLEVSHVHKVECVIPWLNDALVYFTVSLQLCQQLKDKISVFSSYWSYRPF
# UniProt Q92766: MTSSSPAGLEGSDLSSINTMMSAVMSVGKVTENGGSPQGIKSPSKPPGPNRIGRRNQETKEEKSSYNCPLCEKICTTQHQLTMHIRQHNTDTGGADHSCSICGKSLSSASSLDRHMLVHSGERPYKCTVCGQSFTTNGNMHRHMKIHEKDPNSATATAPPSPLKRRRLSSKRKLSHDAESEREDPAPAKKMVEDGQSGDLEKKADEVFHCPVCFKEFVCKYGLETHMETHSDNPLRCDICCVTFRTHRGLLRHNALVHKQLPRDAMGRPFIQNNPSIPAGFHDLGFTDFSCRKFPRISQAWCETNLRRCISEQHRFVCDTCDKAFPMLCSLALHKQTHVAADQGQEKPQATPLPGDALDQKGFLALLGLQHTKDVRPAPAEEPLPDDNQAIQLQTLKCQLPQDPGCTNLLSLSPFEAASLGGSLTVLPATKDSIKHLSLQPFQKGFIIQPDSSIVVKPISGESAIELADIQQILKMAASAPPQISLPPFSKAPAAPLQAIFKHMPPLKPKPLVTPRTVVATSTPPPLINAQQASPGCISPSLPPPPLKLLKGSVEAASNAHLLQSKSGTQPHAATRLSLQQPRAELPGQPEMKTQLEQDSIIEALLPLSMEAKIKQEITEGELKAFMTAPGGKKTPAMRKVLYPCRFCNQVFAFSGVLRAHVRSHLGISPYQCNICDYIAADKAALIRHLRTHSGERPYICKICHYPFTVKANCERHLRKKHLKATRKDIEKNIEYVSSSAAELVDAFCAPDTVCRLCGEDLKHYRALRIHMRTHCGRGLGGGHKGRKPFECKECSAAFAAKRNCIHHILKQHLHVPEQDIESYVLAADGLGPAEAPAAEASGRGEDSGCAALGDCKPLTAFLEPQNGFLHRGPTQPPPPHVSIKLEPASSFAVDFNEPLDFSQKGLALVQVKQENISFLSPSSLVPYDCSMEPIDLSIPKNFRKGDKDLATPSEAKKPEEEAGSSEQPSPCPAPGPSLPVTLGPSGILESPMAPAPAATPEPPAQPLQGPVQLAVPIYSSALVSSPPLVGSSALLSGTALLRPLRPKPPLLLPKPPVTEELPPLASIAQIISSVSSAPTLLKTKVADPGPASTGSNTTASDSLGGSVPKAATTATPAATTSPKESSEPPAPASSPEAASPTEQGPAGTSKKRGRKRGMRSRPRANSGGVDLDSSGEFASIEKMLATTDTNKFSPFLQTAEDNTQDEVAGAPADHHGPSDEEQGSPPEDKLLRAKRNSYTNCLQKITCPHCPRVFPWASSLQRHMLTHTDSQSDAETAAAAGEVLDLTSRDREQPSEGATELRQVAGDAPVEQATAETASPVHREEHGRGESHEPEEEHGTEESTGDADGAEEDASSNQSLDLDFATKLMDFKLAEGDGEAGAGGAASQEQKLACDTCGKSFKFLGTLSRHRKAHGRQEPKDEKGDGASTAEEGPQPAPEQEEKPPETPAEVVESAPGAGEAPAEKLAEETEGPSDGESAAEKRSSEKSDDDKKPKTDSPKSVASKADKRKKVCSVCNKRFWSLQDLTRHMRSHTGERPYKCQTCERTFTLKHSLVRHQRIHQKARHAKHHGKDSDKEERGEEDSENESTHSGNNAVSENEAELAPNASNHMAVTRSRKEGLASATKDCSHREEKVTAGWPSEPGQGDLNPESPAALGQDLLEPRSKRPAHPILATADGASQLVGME
# UniProt P60602: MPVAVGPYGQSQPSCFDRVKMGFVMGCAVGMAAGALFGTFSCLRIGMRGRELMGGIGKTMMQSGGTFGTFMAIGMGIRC
# Some of the results follow. Residues, ends and D or L forms follow the SMILES beside them. *: point of attachment. Cbz = O=C(OCc1ccccc1)*
# What was measured:
# Assay in all cases: log2 fold change, soluble protein after heating vs DMSO (PISA); higher = thermal stabilisation; K562 cells, 10 uM, 30 min; active = over 0.2 and 3.5 SD of the protein, either way, in both replicates (recomputed)
# erlotinib = compound: C#Cc1cccc(Nc2ncnc3cc(OCCOC)c(OCCOC)cc23)c1 [erlotinib]
# Summary of the method: (§1)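 Thermal stability values are relative to control samples and come from duplicates. They are expressed as log2 fold changes. For measurement, K562 cells (2×10^6 cells/mL) received 10 μM compound for 30 min, and aliquots were heated for 3 min over 48°C-58°C, pooled, and extracted at 4°C in PBS with 0.5% NP-40. Soluble protein, the supernatant after 21,000xg for 90 min, was quantified by TMTpro 16plex LC-MS/MS with equalised channel sums.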
# [1] = compound: C/C(=N\NC(=O)C1=CC(=CC=C1)S(=O)(=O)N2CCOCC2)/C3=C(C=CC(=C3)Cl)O
# Summary of the method: as §1
# [2] = compound: C1=CC(=C(C=C1Cl)C2=NC3=NC=CN=C3C(=N2)NC4=CC=NC=C4)F
# Summary of the method: as §1
# [3] = compound: C1=CC(=CC=C1C2=NC3=C(N2)C=C(C=C3)C(=O)N)OC4=CC=C(C=C4)Cl
# Summary of the method: as §1
# [4] = compound: C1=CC2=C(C=CC(=C2)/C=C\3/C(=O)NC(=NCC4=CC=CS4)S3)N=C1
# Summary of the method: as §1
# [5] = compound: C1=CC=C(C=C1)C2=NC(=C(N2)C3=CC=NC=C3)C4=CC(=C(C=C4)Cl)O
# Summary of the method: as §1
# [6] = compound: C1=CC=C2C(=C1)C3=NNC4=CC=CC(=C43)C2=O
# Summary of the method: as §1
# [7] = compound: C1CCN(C1)C(=O)NC2=CC=CC(=C2)NC3=NC=C(C(=N3)NCCC4=CN=CN4)Br
# Summary of the method: as §1
# [8] = compound: C1CN(CCC1(CC2=CC=C(C=C2)Cl)N)C3=NC=NC4=C3C=CN4
# Summary of the method: as §1
# [9] = compound: CC(=O)c1cnc2ccc(-c3cc(Cl)c(O)c(Cl)c3)nc2c1N[C@H]1CC[C@H](CN(C)C)CC1
# Summary of the method: as §1
# ralimetinib = compound: CC(C)(C)Cn1c(N)nc2ccc(-c3[nH]c(C(C)(C)C)nc3-c3ccc(F)cc3)nc21 [ralimetinib]
# Summary of the method: as §1
# [10] = compound: CC(C)(O)CC(=O)NCCn1ccc2ncnc(Nc3ccc(Oc4cccc(C(F)(F)F)c4)c(Cl)c3)c21
# Summary of the method: as §1
# [11] = compound: CC(C)C1=C2N=C(C=C(N2N=C1)NCC3=CC=CC=C3)NCCCCCCN
# Summary of the method: as §1
# [12] = compound: CC(C)C[C@@H](C=O)NC(=O)[C@H](CC(C)C)NC(=O)[C@H](CC(C)C)NC(=O)OCc1ccccc1
# Summary of the method: as §1
# [13] = compound: CC1=C(C2=C(C=C1)C(=O)C3=CC=CC=C3N2CCCN)C
# Summary of the method: as §1
# [14] = compound: C1=CC2=NC=CN=C2C=C1/C=C/3\C(=O)NC(=O)S3
# Summary of the method: as §1
# IRAK-1-4 Inhibitor I = compound: C1COCCN1CCN2C3=CC=CC=C3N=C2NC(=O)C4=CC(=CC=C4)[N+](=O)[O-] [IRAK-1-4 Inhibitor I]
# Summary of the method: as §1
# ibrutinib = compound: C=CC(=O)N1CCC[C@@H](n2nc(-c3ccc(Oc4ccccc4)cc3)c3c(N)ncnc32)C1 [ibrutinib]
# Summary of the method: as §1
# pinometostat = compound: CC(C)N(C[C@H]1O[C@@H](n2cnc3c(N)ncnc32)[C@H](O)[C@@H]1O)[C@H]1C[C@@H](CCc2nc3cc(C(C)(C)C)ccc3[nH]2)C1 [pinometostat]
# Summary of the method: as §1
Target,log2 fold change (erlotinib),log2 fold change [1],log2 fold change [2],log2 fold change [3],log2 fold change [4],log2 fold change [5],log2 fold change [6],log2 fold change [7],log2 fold change [8],log2 fold change [9],log2 fold change (ralimetinib),log2 fold change [10],log2 fold change [11],log2 fold change [12],log2 fold change [13],log2 fold change [14],log2 fold change (IRAK-1-4 Inhibitor I),log2 fold change (ibrutinib),log2 fold change (pinometostat)
RPRD1A (UniProt Q96P16),inactive: 0.141,inactive: 0.217,inactive: 0.076,inactive: -0.015,inactive: 0.222,inactive: 0.168,inactive: 0.123,inactive: -0.131,inactive: 0.057,inactive: -0.187,inactive: -0.071,inactive: -0.217,inactive: -0.028,inactive: 0.076,inactive: 0.107,,,,
RPS3 (UniProt P23396),inactive: -0.136,inactive: -0.072,inactive: -0.224,inactive: 0.061,inactive: -0.026,inactive: -0.073,inactive: -0.03,inactive: 0.093,inactive: -0.156,inactive: 0.051,inactive: 0.034,inactive: 0.005,inactive: -0.096,inactive: 0.016,active: -0.497,inactive: -0.027,inactive: -0.091,inactive: 0.02,inactive: 0.128
RPS27A (UniProt P62979),inactive: -0.246,inactive: -0.143,inactive: -0.207,inactive: 0.016,inactive: -0.136,inactive: 0.004,inactive: -0.062,inactive: 0.111,inactive: -0.098,inactive: 0.054,inactive: 0.082,inactive: 0.216,inactive: 0.051,inactive: 0.114,active: -0.557,inactive: -0.033,inactive: -0.055,inactive: 0.141,inactive: 0.078
ROGDI (UniProt Q9GZN7),,,,,,inactive: -0.024,,,,,inactive: 0.066,,,inactive: 0.121,,,,,
RPS14 (UniProt P62263),inactive: -0.166,inactive: -0.077,inactive: -0.124,inactive: 0.027,inactive: -0.149,inactive: 0.039,inactive: 0.045,inactive: 0.031,inactive: -0.126,inactive: 0.079,inactive: 0.135,inactive: -0.014,inactive: -0.016,inactive: 0.003,active: -0.586,inactive: -0.04,inactive: -0.178,inactive: 0.03,inactive: -0.013
RREB1 isoform 2 (UniProt Q92766),inactive: -0.035,,inactive: -0.179,inactive: 0.036,,inactive: 0.032,,inactive: 0.114,inactive: -0.127,,inactive: 0.027,inactive: -0.141,inactive: 0.002,inactive: 0,inactive: -0.222,inactive: -0.084,inactive: -0.107,inactive: -0.11,inactive: -0.037
ROMO1 (UniProt P60602),inactive: 0.016,inactive: -0.092,inactive: 0.045,inactive: -0.01,inactive: -0.009,inactive: 0.008,inactive: 0.003,inactive: 0.039,inactive: 0.001,inactive: -0.044,inactive: -0.024,inactive: 0.052,inactive: -0.051,inactive: -0.083,inactive: -0.077,inactive: 0.018,,inactive: 0.069,
RPS3A (UniProt D6R9B6),,inactive: -0.359,,,inactive: 0.198,,inactive: -0.243,inactive: 0.303,inactive: 0.034,inactive: -0.124,,,,,inactive: -0.363,,,,
